{"sequences": {"note": "Protein sequences, listed by entry. Tags and fused reporters are not part of them. Residues count along the entry.", "UniProt Q9NZQ7, residues 19-290": "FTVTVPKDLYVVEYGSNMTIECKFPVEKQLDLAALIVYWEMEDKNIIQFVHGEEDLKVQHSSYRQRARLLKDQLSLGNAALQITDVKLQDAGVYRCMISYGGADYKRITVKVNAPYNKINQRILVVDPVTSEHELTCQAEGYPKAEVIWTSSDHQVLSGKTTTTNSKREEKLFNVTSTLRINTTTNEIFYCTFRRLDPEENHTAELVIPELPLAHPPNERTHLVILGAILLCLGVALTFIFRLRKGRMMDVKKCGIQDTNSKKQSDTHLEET"}, "source": "paper PMC7933954", "about": "(EMBO Molecular Medicine, 2021)", "molecular_target": "programmed death ligand‐1 (PD‐L1) (human (endogenous in MDA‐MB‐436 and OVCAR‐3)) (UniProt Q9NZQ7)", "test": "co-IP; native IP: MDA‐MB‐436 or OVCAR‐3 cells treated 6 h with KMTR2 or IgG1 control ± ROCK1i (GSK269962); avelumab (IgG4‐Fc) added to the medium for 1 h at 4°C to hold surface PD‐L1; lysis in 20 mM Tris pH 7.5, 150 mM NaCl, 1 mM EDTA, 10% glycerol, 1% Triton‐X; anti‐human IgG4‐specific beads; blots for PD‐L1, CMTM6, ROCK1", "note": "No constants are given. Whether binding was seen depends on the method and setting. Binding seen in cells or lysates may run through a third protein. Some results given as binding are weak or reduced against the parent protein; the word gives no strength."}
{"binder": "CMTM6 (protein, UniProt Q9NX76 1-183) MENGAVYSPTTEEDPGPARGPRSGLAAYFFMGRLPLLRRVLKGLQLLLSLLAFICEEVVSQCTLCGGLYFFEFVSCSAFLLSLLILIVYCTPFYERVDTTKVKSSDFYITLGTGCVFLLASIIFVSTHDRTSAEIAAIVFGFIASFMFLLDFITMLYEKRQESQLRKPENTTRAEALTEPLNA", "values": [{"measurement": "binding", "result": "binds"}]}
